We go through nine targets from the supplement of paper PMC7666118.

Amino acid sequences for entries named in this document (tags omitted). A change or cut given only in a name is not applied to a line headed by its entry.
UniProt Q02083: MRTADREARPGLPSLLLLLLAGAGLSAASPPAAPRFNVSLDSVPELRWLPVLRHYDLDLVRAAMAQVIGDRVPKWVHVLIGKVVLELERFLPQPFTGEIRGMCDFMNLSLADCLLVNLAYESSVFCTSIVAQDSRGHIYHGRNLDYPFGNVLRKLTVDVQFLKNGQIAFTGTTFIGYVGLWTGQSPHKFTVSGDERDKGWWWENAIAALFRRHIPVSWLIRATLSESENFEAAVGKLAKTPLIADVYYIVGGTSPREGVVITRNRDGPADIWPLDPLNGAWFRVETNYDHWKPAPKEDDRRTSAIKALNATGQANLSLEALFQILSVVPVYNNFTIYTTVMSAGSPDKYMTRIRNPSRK
UniProt Q96HR8: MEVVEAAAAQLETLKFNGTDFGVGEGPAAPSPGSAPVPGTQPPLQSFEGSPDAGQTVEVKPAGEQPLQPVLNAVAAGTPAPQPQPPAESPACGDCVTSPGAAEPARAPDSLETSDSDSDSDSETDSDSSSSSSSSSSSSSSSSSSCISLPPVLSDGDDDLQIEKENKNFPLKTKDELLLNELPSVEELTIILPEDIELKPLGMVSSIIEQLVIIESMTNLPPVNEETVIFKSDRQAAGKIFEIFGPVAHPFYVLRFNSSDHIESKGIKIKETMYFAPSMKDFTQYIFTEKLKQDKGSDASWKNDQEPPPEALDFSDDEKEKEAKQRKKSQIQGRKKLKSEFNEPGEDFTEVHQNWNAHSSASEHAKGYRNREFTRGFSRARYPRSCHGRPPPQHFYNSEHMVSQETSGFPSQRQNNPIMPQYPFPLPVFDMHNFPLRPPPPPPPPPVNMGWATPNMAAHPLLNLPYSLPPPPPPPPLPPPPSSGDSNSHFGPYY
UniProt Q9UBB6: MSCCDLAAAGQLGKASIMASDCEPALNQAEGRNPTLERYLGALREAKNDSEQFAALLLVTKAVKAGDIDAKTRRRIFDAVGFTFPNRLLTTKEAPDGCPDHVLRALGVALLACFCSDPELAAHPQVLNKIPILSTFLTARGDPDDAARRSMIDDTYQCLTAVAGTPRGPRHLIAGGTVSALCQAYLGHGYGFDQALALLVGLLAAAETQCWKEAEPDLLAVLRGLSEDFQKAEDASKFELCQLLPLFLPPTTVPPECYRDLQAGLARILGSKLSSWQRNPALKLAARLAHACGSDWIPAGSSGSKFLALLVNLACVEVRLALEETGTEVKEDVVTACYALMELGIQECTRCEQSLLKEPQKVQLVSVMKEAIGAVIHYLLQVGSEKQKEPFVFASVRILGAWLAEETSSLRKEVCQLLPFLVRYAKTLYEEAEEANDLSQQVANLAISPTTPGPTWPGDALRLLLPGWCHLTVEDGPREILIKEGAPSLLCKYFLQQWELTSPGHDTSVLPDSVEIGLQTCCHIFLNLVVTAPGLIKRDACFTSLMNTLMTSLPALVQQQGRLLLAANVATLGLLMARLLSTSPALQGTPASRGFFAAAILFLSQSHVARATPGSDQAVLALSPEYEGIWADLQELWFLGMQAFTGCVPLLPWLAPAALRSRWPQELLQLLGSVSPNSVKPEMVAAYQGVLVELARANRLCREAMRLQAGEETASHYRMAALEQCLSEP
UniProt P55160: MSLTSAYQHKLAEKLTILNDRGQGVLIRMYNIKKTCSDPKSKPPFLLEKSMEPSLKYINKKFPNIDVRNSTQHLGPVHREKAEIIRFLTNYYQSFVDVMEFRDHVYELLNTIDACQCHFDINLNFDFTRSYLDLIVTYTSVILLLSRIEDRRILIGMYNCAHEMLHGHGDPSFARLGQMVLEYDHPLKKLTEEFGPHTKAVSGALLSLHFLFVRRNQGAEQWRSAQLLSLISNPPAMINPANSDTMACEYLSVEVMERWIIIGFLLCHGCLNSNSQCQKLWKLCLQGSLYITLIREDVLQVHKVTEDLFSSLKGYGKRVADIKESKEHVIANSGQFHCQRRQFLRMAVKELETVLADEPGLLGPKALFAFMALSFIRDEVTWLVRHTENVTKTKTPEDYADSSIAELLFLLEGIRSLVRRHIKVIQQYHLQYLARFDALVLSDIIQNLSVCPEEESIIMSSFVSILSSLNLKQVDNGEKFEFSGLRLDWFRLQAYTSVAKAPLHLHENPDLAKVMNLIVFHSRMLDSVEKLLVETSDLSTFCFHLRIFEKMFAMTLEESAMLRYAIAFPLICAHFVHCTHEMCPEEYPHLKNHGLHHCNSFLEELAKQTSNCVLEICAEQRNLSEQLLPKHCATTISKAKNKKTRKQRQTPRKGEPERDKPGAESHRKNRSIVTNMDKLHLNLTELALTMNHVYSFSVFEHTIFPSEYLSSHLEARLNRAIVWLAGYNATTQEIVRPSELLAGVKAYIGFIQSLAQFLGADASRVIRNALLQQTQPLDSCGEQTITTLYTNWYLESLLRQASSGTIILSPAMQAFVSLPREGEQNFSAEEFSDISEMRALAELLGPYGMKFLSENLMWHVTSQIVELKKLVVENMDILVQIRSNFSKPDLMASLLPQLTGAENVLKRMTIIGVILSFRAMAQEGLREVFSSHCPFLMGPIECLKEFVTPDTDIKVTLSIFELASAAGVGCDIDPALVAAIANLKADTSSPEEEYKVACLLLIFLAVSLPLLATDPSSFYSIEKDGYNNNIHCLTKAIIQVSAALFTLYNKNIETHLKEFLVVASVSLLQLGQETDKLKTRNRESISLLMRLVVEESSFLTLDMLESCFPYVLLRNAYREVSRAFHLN
UniProt Q9ULE6: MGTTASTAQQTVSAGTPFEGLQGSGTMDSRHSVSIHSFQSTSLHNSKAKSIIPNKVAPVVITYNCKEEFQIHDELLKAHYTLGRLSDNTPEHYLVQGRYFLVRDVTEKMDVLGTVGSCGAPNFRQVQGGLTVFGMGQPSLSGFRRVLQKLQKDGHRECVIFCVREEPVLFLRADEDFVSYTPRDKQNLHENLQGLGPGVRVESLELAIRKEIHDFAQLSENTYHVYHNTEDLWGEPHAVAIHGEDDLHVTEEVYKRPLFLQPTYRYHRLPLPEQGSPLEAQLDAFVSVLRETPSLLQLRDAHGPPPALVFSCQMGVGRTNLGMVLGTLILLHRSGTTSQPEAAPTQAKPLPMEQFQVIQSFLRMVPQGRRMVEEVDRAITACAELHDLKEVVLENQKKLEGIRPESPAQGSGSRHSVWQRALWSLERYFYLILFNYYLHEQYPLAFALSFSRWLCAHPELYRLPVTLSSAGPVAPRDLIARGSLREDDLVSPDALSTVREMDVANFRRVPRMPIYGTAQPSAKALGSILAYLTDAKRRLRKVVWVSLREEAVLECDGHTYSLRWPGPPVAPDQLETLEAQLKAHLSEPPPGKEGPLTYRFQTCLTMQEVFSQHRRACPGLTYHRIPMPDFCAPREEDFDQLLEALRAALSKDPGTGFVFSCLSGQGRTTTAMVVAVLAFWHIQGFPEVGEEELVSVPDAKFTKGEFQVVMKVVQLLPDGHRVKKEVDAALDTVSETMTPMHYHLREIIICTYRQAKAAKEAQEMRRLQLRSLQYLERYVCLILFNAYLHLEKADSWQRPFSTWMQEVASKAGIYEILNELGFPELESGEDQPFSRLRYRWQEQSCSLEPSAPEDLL
UniProt Q8N5F7: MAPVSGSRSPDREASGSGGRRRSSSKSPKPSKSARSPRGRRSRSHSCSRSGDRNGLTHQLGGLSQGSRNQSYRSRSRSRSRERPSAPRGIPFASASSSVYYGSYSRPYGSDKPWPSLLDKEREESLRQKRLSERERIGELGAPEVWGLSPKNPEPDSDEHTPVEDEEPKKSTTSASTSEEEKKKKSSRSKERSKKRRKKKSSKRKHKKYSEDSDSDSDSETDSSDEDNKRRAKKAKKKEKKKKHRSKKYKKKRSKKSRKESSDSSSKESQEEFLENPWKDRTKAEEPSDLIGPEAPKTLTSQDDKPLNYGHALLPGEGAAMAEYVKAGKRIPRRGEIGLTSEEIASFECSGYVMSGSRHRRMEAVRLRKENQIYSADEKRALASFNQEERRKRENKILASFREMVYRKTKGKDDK
UniProt Q969R2: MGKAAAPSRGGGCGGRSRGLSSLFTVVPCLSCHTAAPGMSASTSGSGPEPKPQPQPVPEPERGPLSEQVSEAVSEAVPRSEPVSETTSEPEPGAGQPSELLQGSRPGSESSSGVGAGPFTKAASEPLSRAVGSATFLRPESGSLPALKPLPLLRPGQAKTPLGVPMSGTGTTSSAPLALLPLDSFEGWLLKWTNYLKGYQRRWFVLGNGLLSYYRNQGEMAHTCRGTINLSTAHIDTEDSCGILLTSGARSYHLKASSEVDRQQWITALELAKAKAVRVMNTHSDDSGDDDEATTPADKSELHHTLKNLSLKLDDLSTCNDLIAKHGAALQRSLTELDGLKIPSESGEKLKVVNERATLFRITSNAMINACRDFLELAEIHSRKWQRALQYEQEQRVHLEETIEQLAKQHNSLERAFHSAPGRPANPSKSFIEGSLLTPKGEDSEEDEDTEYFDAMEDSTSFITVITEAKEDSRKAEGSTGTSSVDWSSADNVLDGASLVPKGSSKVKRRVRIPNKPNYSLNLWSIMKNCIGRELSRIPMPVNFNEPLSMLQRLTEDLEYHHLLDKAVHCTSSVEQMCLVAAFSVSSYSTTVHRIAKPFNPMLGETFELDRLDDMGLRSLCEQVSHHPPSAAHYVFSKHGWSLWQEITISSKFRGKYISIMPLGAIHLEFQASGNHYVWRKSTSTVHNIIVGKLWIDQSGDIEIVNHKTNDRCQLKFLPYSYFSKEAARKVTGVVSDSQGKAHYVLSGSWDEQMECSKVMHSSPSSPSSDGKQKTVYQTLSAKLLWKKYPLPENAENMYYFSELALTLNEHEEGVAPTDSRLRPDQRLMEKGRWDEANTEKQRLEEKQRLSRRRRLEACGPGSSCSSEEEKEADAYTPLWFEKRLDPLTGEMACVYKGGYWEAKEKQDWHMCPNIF
UniProt P22059, whole entry: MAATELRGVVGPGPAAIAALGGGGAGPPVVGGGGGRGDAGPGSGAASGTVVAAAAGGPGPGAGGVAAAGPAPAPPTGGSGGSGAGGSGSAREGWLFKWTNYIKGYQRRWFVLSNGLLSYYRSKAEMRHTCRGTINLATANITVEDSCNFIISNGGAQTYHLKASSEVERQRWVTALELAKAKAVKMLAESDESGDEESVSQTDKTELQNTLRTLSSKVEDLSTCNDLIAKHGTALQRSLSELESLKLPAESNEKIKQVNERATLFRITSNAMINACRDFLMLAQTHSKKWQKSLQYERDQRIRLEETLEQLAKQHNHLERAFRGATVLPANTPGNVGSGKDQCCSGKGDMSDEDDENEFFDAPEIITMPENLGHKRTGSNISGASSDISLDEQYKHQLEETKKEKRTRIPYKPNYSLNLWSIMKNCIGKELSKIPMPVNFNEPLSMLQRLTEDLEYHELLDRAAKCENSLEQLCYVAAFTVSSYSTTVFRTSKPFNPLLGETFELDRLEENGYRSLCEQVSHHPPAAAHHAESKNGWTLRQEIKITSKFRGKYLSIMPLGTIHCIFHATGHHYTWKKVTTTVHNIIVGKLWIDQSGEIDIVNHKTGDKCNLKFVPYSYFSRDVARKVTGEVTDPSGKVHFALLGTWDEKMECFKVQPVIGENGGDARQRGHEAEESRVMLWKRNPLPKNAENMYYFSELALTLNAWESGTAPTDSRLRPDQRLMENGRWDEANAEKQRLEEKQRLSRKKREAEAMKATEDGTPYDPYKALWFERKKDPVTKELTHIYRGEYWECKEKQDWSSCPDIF
UniProt O14777: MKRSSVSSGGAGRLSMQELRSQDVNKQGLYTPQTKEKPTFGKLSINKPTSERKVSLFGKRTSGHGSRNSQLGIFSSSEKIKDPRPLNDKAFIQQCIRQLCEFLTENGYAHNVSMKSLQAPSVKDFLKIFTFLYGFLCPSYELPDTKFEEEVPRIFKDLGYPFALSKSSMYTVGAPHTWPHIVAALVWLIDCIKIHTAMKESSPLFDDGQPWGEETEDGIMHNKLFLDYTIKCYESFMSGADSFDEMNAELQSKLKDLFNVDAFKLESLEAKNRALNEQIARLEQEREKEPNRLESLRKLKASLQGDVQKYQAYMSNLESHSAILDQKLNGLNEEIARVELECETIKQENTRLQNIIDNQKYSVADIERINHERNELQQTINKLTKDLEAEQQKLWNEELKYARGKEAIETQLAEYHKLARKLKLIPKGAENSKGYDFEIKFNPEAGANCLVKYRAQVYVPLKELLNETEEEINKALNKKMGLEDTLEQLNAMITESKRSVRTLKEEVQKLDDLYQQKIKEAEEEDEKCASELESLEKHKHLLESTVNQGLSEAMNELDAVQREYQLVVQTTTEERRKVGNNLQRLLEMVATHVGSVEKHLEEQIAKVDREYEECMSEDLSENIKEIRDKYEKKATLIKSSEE

The list shows a part of the results.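 Rule for the calls: active = dose-dependent thermal stabilisation significant by F-test of dose-response against flat model at 10% FDR; inactive = not significant.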

Compound in this experiment: Nc1nc2c(ncn2[C@@H]2O[C@H](COP(=O)(O)OP(=O)(O)OP(=O)(O)O)[C@@H](O)[C@H]2O)c(=O)[nH]1
Put plainly: dose-dependent thermal stabilisation call (2D-TPP, DLPTP, 10% FDR) (binary (1 = stabilised)); higher = stabilised by the compound. The settings on record: system: Jurkat gel-filtered lysate; concentration range 1-500 µM.
Regarding NAAA (UniProt Q02083), the “dose-dependent thermal stabilisation call” value is inactive: 0.
Turning to NAF1 (UniProt Q96HR8), the “dose-dependent thermal stabilisation call” value is inactive: 0.
NCDN (UniProt Q9UBB6): the “dose-dependent thermal stabilisation call” value is inactive: 0.
As for NCKAP1L (UniProt P55160), the “dose-dependent thermal stabilisation call” value is inactive: 0.
Under PALD1 (UniProt Q9ULE6) stands inactive: 0; under NKAP (UniProt Q8N5F7), inactive: 0.
To OSBP2 (UniProt Q969R2) belongs inactive: 0; to OSBP (UniProt P22059), active: 1.
As to NDC80 (UniProt O14777), the “dose-dependent thermal stabilisation call” value is inactive: 0.
